Results taken from PMC12095603.
No constants are given. Whether binding was seen depends on the method and setting. Binding seen in cells or lysates may run through a third protein. Some results given as binding are weak or reduced against the parent protein; the word gives no strength.

Sequences of proteins named here, by UniProt entry; tags and fusion partners are left off.
UniProt P51449: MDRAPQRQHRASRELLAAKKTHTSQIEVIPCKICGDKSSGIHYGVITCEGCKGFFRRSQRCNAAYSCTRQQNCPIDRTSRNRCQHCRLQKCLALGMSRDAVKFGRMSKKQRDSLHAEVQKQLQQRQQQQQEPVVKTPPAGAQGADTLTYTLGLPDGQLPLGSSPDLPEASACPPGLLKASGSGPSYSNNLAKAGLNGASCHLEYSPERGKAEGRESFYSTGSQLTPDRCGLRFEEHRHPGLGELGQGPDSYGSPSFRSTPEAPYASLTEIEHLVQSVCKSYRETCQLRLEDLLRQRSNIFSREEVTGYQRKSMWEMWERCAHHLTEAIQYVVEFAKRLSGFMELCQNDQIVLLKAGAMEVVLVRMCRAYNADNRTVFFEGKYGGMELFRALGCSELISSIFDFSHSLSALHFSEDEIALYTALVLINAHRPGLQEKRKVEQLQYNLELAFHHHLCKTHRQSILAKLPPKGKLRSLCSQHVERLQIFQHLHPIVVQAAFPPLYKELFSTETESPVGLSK
UniProt Q13547: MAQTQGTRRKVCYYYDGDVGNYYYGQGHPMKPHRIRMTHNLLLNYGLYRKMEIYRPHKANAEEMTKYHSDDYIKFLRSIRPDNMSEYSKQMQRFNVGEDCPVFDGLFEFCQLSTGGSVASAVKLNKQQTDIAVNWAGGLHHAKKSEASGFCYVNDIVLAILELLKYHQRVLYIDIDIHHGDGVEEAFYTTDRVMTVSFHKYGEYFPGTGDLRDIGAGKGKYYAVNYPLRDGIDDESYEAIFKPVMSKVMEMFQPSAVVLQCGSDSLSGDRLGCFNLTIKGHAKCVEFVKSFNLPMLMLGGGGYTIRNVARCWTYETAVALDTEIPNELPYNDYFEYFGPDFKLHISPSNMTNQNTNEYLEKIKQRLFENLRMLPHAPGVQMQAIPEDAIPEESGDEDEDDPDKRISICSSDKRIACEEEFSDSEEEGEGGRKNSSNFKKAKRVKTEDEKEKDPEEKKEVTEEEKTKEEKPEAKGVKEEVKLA
UniProt Q09472: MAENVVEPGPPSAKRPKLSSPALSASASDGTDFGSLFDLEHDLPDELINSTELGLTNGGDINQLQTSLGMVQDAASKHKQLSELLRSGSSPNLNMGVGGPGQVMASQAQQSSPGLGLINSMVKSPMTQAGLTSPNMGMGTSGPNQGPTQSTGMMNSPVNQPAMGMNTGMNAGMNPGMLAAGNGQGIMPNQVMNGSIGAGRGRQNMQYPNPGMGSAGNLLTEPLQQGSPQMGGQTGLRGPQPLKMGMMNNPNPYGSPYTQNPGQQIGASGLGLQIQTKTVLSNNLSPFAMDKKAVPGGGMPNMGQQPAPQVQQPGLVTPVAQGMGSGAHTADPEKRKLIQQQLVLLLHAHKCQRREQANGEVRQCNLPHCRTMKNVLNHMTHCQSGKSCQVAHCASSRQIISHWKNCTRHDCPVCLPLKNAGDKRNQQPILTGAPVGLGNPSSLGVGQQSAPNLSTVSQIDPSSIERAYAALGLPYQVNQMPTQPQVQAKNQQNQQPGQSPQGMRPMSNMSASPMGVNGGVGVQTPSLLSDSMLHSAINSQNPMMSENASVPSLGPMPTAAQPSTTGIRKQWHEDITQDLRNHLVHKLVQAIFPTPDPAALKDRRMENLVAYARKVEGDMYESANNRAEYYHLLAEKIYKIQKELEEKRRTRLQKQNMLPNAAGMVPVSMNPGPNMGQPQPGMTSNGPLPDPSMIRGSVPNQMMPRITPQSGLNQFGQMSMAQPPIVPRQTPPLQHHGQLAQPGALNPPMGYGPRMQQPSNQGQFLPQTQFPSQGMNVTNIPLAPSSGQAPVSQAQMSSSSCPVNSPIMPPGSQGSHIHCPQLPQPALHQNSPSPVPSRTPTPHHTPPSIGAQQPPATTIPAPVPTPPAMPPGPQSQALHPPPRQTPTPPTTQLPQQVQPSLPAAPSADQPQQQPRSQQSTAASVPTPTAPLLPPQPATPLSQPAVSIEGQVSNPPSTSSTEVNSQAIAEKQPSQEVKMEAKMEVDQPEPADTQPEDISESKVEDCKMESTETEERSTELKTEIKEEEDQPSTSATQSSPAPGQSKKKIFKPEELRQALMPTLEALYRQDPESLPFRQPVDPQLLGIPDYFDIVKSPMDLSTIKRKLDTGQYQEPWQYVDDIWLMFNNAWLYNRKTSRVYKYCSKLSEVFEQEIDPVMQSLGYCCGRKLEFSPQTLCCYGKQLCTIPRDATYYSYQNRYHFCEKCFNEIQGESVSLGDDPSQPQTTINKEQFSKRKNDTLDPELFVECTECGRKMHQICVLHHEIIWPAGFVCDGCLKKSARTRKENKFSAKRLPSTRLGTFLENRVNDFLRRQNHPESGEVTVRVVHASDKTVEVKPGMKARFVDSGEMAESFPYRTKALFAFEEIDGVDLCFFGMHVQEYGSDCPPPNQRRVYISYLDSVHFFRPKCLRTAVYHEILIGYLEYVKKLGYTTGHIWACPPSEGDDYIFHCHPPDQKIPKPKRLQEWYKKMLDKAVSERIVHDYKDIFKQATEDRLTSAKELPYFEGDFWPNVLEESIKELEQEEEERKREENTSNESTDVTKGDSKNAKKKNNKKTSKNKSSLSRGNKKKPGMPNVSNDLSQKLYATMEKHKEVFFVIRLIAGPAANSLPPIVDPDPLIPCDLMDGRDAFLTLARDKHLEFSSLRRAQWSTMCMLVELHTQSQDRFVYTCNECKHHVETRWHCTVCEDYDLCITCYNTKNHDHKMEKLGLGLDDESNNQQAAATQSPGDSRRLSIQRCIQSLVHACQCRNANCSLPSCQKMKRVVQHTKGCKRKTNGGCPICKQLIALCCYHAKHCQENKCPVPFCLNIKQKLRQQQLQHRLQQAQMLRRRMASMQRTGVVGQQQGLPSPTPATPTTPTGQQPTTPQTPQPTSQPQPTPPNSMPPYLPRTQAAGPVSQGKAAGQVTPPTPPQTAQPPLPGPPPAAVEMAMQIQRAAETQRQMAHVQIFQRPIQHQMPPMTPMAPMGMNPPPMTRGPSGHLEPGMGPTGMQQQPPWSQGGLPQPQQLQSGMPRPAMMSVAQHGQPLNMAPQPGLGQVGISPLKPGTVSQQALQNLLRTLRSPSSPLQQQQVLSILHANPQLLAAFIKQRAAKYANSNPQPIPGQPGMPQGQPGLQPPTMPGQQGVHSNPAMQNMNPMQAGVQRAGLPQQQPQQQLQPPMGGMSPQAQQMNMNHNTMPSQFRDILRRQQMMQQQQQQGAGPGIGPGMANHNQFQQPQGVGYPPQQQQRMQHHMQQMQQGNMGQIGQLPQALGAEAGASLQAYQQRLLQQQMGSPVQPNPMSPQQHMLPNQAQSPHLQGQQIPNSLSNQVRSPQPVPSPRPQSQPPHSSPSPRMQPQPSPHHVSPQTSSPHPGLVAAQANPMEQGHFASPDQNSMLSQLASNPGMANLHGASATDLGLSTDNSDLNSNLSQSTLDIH
UniProt Q92793: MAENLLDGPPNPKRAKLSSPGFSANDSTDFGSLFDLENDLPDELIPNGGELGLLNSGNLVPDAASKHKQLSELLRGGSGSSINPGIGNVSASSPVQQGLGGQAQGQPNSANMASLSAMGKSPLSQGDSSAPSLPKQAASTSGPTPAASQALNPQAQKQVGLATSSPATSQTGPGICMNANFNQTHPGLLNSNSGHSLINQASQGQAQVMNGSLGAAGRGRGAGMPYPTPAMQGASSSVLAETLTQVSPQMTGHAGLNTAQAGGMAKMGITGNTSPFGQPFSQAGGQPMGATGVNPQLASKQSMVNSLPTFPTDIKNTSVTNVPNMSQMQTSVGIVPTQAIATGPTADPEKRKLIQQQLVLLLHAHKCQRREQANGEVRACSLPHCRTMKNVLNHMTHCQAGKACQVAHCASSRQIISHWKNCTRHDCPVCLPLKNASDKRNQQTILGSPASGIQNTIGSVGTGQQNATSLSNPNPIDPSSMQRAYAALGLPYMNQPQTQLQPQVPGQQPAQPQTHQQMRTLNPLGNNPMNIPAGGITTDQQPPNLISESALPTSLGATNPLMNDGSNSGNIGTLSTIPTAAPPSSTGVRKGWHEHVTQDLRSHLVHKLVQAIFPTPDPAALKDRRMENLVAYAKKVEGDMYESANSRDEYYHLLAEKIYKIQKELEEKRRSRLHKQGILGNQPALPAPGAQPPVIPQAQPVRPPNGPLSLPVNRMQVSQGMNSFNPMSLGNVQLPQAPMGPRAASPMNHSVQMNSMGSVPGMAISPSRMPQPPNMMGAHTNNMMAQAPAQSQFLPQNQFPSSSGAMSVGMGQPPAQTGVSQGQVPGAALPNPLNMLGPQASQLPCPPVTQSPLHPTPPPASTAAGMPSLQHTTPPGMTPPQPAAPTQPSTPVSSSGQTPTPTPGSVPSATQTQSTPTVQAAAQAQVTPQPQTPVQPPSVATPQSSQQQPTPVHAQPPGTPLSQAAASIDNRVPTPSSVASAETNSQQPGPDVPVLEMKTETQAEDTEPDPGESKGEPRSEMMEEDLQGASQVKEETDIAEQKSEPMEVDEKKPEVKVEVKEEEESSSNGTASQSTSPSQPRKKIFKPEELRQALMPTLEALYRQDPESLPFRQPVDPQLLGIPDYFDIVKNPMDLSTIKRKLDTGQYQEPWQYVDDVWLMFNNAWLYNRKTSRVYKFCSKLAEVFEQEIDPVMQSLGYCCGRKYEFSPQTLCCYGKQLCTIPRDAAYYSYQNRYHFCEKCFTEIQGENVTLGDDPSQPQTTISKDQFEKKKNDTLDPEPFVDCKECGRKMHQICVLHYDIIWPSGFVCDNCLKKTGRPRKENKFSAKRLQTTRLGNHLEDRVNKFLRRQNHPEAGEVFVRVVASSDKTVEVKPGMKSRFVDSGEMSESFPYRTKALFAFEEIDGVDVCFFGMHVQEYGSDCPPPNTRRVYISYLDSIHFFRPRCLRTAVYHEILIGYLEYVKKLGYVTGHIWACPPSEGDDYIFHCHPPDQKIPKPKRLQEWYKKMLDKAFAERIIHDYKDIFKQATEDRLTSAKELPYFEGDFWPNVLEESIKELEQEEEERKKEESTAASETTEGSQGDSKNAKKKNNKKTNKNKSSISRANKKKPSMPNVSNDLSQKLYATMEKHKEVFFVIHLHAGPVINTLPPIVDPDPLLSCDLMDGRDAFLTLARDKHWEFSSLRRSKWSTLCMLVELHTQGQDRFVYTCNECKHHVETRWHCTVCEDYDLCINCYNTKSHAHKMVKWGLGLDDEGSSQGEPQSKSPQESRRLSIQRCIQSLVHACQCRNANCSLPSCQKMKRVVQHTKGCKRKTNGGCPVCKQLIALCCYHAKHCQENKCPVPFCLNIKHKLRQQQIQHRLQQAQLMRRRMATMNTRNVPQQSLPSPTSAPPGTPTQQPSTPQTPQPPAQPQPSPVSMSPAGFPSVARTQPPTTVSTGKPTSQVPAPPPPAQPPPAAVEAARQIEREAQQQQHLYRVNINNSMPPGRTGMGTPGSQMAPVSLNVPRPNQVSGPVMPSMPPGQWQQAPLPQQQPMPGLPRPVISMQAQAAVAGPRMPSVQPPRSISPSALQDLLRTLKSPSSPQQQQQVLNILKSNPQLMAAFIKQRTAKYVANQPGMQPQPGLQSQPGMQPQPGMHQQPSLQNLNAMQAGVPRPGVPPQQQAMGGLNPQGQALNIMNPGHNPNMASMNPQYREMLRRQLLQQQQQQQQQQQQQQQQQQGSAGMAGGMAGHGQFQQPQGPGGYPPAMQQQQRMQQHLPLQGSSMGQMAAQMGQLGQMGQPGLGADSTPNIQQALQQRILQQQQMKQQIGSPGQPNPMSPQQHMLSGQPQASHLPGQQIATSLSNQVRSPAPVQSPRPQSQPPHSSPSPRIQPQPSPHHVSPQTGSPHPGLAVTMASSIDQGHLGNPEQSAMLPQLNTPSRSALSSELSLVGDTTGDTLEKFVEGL

What was measured:
Myc-tagged RORC [1] = molecular target: Myc-tagged RORC (UniProt P51449); assay: co-IP; anti-Myc antibody on NK-92 cells transfected with Myc-tagged RORC, HA-tagged p300 and Flag-tagged HDACs or SIRTs; immunoblotting
Myc-tagged RORC [2] = molecular target: Myc-tagged RORC (UniProt P51449); assay: co-IP; anti-Myc antibody on NK-92 cells transfected with Myc-tagged RORC and HA-tagged acetyltransferases; immunoblotting

binding (Myc-tagged RORC [1])	binding (Myc-tagged RORC [2])	Substance
binds		Flag-tagged HDAC1 (from UniProt Q13547 1-482) (enzyme)
	binds	HA-tagged p300 (from UniProt Q09472 1-2414) (enzyme)
	binds	HA-tagged CBP (from UniProt Q92793 1-2442) (enzyme)
